# Laboratory results: PubChem BioAssay AID1671195 (Yale University, 2021)
# Purpose: 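Genes whose knockdown alters LDL uptake in liver cancer cells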 (primary screen)
# System: human Huh7 hepatoma cells
# Reagents: siRNA pool against human genes, 18 nM
# Duration: about 2 to 2.5 days of knockdown, then 8 h LDL uptake
# Challenge: DiI-labelled LDL at 30 µg/ml for 8 h, in lipoprotein-deficient serum medium
# Measured: 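Fluorescent LDL signal imaged in cells, scaled to the plate median, robust z-score for each replicate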
# Direction: robust z-score: higher = more LDL uptake after knockdown
# Call rule: 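a gene counts as active if at least two replicate z-scores exceed ±2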
# In all, the deposit lists about 22,000 reagents; below is a part drawn at random. Of all reagents, about 1,510 (6.9%) were called active. 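Active includes knockdowns raising or lowering LDL uptake; positive z-scores mean more uptake, negative mean less.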 No sequences are given here.
target,"robust z-score, replicate 1","robust z-score, replicate 2","robust z-score, replicate 3",outcome
MAF,0.0627,1.22,0.12,inactive
GLT6D1,-0.175,0.0282,-0.344,inactive
TDRD6,-0.857,0.0165,0.444,inactive
CACNA1F,2.35,0.477,1.43,inactive
IRF8,3.65,3.98,4.21,active
PLEKHJ1,-0.351,0.449,-0.426,inactive
RAP1GDS1,-0.792,-1.15,-0.252,inactive
LOC440909 (retired record),2.15,1.54,1.44,inactive
GAL,-0.955,-0.707,-1.93,inactive
S100A6,-1.12,0.434,-0.0944,inactive
CYB5R2,-0.00546,0.697,-0.616,inactive
TAF5L,-0.754,-0.663,-0.61,inactive
CISD2,0.119,-0.00756,0.0632,inactive
LINC00574,-1.24,-0.678,-0.554,inactive
PCGF1,0.189,-0.158,-0.232,inactive
ATMIN,0.208,-0.086,0.254,inactive
RAPGEF2,1.23,1.29,1.74,inactive
NPAS2,0.228,0.244,-0.0276,inactive
POLR2G,-1.27,-1.18,-1.32,inactive
FMNL1,1.13,0.801,0.704,inactive
SAP130,-0.168,-0.245,0.0934,inactive
SERPINB10,0.0506,-0.601,-0.891,inactive
RIPOR1,0.116,0.0192,0.294,inactive
SPATA31A7,0.34,1.35,2.01,inactive
PYDC2,0.578,-0.184,0.242,inactive
STAU2,0.384,1.01,1.15,inactive
SCARF1,1.34,1.42,2.03,inactive
PLK2,0.908,1.29,0.298,inactive
RHBDF1P1,-1.26,-1.22,-1.56,inactive
AXDND1,-0.212,-0.261,-0.234,inactive
ZNF207,2.42,-0.248,0.929,inactive
GCM1,-0.0174,-0.438,-1.22,inactive
CEP152,0.714,3.16,0.28,inactive
TRIL,-0.0172,-1.11,-1.66,inactive
PROX1,0.00503,-0.0562,0.505,inactive
INO80E,-0.754,-0.682,-0.682,inactive
SPATA16,-0.954,-0.27,-0.0304,inactive
POLG,0.0391,0.237,0.432,inactive
LOC730218,-0.417,-0.725,-0.172,inactive
FCHO2,-1.08,-0.098,-0.865,inactive
LOC441922 (retired record),-0.23,-0.487,-0.525,inactive
PDX1,0.316,0.437,0.335,inactive
KIAA0232,-0.281,-0.313,0.66,inactive
NNAT,-1.13,-1.46,-0.72,inactive
P2RY11,-1.09,-1.42,-1.21,inactive
SAG,3.11,0.476,1.19,inactive
LOC389689 (retired record),-1.16,-1.38,-1.03,inactive
PSMA5,-0.000952,-0.242,0.404,inactive
PXDN,0.366,0.904,0.271,inactive
CHI3L2,-1.17,2.95,2.32,active
NDP,-0.231,-0.766,-0.637,inactive
CHMP3,-1.21,0.511,0.368,inactive
ZNF195,0.154,0.64,0.339,inactive
OR1L4,0.582,0.33,0.48,inactive
CALML5,0.586,1.13,1.39,inactive
BAGE,-1.89,-1.67,-1.33,inactive
PLA2G12B,-1.13,-1.54,-1.85,inactive
TMEM132E,0.204,-0.604,0.111,inactive
DEFB115,1.14,-0.0642,-0.15,inactive
SH3GL3,2.15,0.155,0.367,inactive
FZD10-AS1,0.0874,-0.467,-0.454,inactive
LOC401098 (retired record),0.32,0.293,1.17,inactive
LNCRI,-0.368,-1.42,-0.847,inactive
LRRC3,-2.42,-2.38,-2.08,active
SYTL3,-0.958,-1.17,-1.25,inactive
FLNB,-0.613,-0.211,-0.888,inactive
EIF2B5,0.823,-0.0111,0.0954,inactive
RALGDS,-0.00817,0.446,0.589,inactive
OR10G2,-0.356,-1.7,-0.43,inactive
WDR53,0.328,0.364,0.299,inactive
UBR2,-0.586,-0.0258,-1.11,inactive
OR4K13,-0.113,-0.521,-0.247,inactive
MMUT,0.826,1.01,1.14,inactive
G3BP1,0.935,2.65,1.35,inactive
LOC440828 (retired record),0.234,-0.241,-0.103,inactive
LOC441351 (retired record),0.503,-0.371,0.114,inactive
AP5M1,-0.0488,-0.126,0.257,inactive
LOC440609 (retired record),-0.183,-0.488,-0.794,inactive
MED22,0.552,0.398,0.901,inactive
LOC389447 (retired record),-0.0102,-0.197,-0.429,inactive
KRABD3,-0.711,-0.0237,-0.237,inactive
MYBL2,-0.295,-0.805,-0.881,inactive
PNPLA4,0.349,0.356,1.69,inactive
LOC392550 (retired record),-1.3,-0.856,-1.06,inactive
OR8S1,2.14,2.1,2.52,active
LINC02991,-1.34,-1.68,-1.53,inactive
FLT1,-0.331,-0.344,-0.0699,inactive
